Results from patent publication US20260266848A1, “COMPOSITIONS AND METHODS FOR DIAGNOSING AND TREATING DYSTONIA” (Duke University, priority 2023, published 2026).
A unit is not stated for every read-out.

System: DYT1 patient plasma
Assay: Whole plasma metabolomics (Biocrates MxP Quant 500 Kit), DYT1 vs Healthy Controls
Conditions: for Mean of DYT1-Dystonia: DYT1-Dystonia group; for Mean of Healthy Control: Healthy Control group; for LogFC / Ratio: DYT1-Dystonia vs Healthy Control
[1] = Healthy Control mean minus DYT1-Dystonia mean
[2] = Mean of Healthy Control minus Mean of DYT1-Dystonia
[3] = human whole plasma metabolite level

| SMILES | Difference [1] | Mean of DYT1-Dystonia (human plasma metabolite level) | Mean of Healthy Control (human plasma metabolite level) | Difference [2] | Mean of DYT1-Dystonia [3] | Mean of Healthy Control [3] | LogFC | Ratio |
| --- | --- | --- | --- | --- | --- | --- | --- | --- |
| CCCCCCCCCCCCC/C=C/[C@@H](O)[C@H](CO)NC(=O)CCCCCCCCCCCCCCCCCCCCC [Cer(d18:1/22:0)_Ceramides] | −0.02982 | 1.234 | 1.204 |  |  |  |  |  |
| CCCCCCCCCCCCC/C=C/[C@@H](O)[C@H](CO)NC(=O)CCCCCCCCCCCCCCC [Cer(d18:1/16:0)_Ceramides] |  |  |  | −0.04891 | 0.9077 | 0.8588 |  |  |
| C[C@H](CCC(=O)NCCS(=O)(=O)O)[C@H]1CC[C@H]2[C@@H]3CC[C@@H]4C[C@H](O)CC[C@]4(C)[C@H]3CC[C@]12C [TLCA_Bile Acids] |  |  |  | 0.0006803 | 0.003238 | 0.003919 |  |  |
| CC(N)CC(=O)O (centres unmarked) [BABA_Aminoacids Related] |  |  |  | 0.01955 | 0.08245 | 0.102 |  |  |
| O=C(O)[C@@H]1CCCN1 [Pro_Aminoacids] |  |  |  | 64.55 | 289.2 | 353.8 |  |  |
| CC(=O)O[C@H](CC(=O)[O-])C[N+](C)(C)C [C2_Acylcarnitines] |  |  |  | 0.6539 | 5.944 | 6.598 |  |  |
| NC(N)=NCCCC[C@H](N)C(=O)O [HArg_Aminoacids Related] |  |  |  | −0.2218 | 2.502 | 2.28 |  |  |
| N[C@@H](CC(=O)O)C(=O)O [Asp_Aminoacids] |  |  |  | 2.169 | 6.715 | 8.883 | −0.4037 | 0.7559 |
| C[N+](C)(C)[C@@H](Cc1c[nH]c2ccccc12)C(=O)[O-] [TrpBetaine_Aminoacids Related] |  |  |  | −0.1464 | 0.4805 | 0.3341 |  |  |
| C[C@H](CCC(=O)NCC(=O)O)[C@H]1CC[C@H]2[C@@H]3[C@H](O)C[C@@H]4C[C@H](O)CC[C@]4(C)[C@H]3CC[C@]12C [GCDCA_Bile Acids] |  |  |  | −0.7857 | 4.677 | 3.892 |  |  |
| N[C@@H](Cc1c[nH]c2ccccc12)C(=O)O [Trp_Aminoacids] |  |  |  | −4.164 | 78.72 | 74.56 |  |  |
| O=C(O)/C=C(\CC(=O)O)C(=O)O [AconAcid_Carboxylic Acids] | 0.1925 | 5.532 | 5.724 |  |  |  |  |  |
| CCCCCCCCCCCCC/C=C/[C@@H](O)[C@H](CO)NC(=O)CCCCCCCCCCCCCCCCCCCCCCCC [Cer(d18:1/25:0)_Ceramides] |  |  |  | 0.07031 | 0.4637 | 0.534 |  |  |
| CC/C=C\C/C=C\C/C=C\C/C=C\C/C=C\CCCC(=O)O [EPA_Fatty Acids] |  |  |  | 0.06759 | 0.161 | 0.2286 |  |  |
| C[N+]1(C)CCC[C@H]1C(=O)[O-] [ProBetaine_Aminoacids Related] |  |  |  | −10.95 | 22.35 | 11.4 |  |  |
| Cn1cnc(C[C@H](N)C(=O)O)c1 [1-Met-His_Aminoacids Related] |  |  |  | 0.6347 | 6.473 | 7.108 |  |  |
| O=C(O)Cc1c[nH]c2ccccc12 [3-IAA_Indoles Derivatives] |  |  |  | −2.939 | 9.304 | 6.364 |  |  |
| C[C@H](CCC(=O)NCCS(=O)(=O)O)[C@H]1CC[C@H]2[C@@H]3[C@H](O)C[C@@H]4C[C@H](O)CC[C@]4(C)[C@H]3C[C@H](O)[C@]12C [TCA_Bile Acids] | −0.00006463 | 0.1122 | 0.1121 |  |  |  |  |  |
| O=C(O)CNC(=O)c1ccccc1 [HipAcid_Carboxylic Acids] |  |  |  | 1.214 | 3.592 | 4.806 |  |  |
| C[C@H](CCC(=O)NCCS(=O)(=O)O)[C@H]1CC[C@H]2[C@@H]3CC[C@@H]4C[C@H](O)CC[C@]4(C)[C@H]3C[C@H](O)[C@]12C [TDCA_Bile Acids] |  |  |  | −0.04063 | 0.2044 | 0.1637 |  |  |
| O=C(O)CCc1c[nH]c2ccccc12 [3-IPA_Indoles Derivatives] |  |  |  | 0.1708 | 0.3176 | 0.4884 |  |  |
| CCCCCCCCCCCCCC(=O)O[C@H]1CC[C@@]2(C)C(=CC[C@H]3[C@@H]4CC[C@H]([C@H](C)CCCC(C)C)[C@@]4(C)CC[C@@H]32)C1 [CE(14:0)_Cholesterol Esters] |  |  |  | 3.979 | 9.408 | 13.39 |  |  |
| CCCCCCCCCCC/C=C/[C@@H](O)[C@H](CO)NC(=O)CCCCCCCCCCCCCCCCCCCCCCC [Cer(d16:1/24:0)_Ceramides] |  |  |  | 0.03534 | 0.3528 | 0.3881 |  |  |
| N[C@@H](CO)C(=O)O [Ser_Aminoacids] |  |  |  | 18.37 | 131.8 | 150.2 |  |  |

| SMILES | Difference [1] | Mean of DYT1-Dystonia (human plasma metabolite level) | Mean of Healthy Control (human plasma metabolite level) | Difference [2] | Mean of DYT1-Dystonia [3] | Mean of Healthy Control [3] | LogFC | Ratio |
| --- | --- | --- | --- | --- | --- | --- | --- | --- |
| NC(CCS)C(=O)O (centres unmarked) [HCys_Aminoacids Related] | −0.2953 | 6.024 | 5.729 |  |  |  |  |  |
| N[C@@H](CSSC[C@H](N)C(=O)O)C(=O)O [Cystine_Aminoacids Related] |  |  |  | −110.2 | 246.2 | 135.9 | 0.8573 | 1.812 |
| C[C@]12CC[C@H](OS(=O)(=O)O)CC1=CC[C@@H]1[C@@H]2CC[C@]2(C)C(=O)CC[C@@H]12 [DHEAS_Hormones] |  |  |  | −2.622 | 7.027 | 4.405 |  |  |
| CCCCCCCCCCCCC/C=C/[C@@H](O)[C@H](CO)NC(=O)CCCCCCCCCCCCCCCCC [Cer(d18:1/18:0)_Ceramides] | −0.01126 | 0.2952 | 0.2839 |  |  |  |  |  |
| CC(C)[C@H](N)C(=O)O [Val_Aminoacids] |  |  |  | 17.51 | 306.3 | 323.8 |  |  |
| C[C@H](CCC(=O)O)[C@H]1CC[C@H]2[C@@H]3CC[C@@H]4C[C@H](O)CC[C@]4(C)[C@H]3C[C@H](O)[C@]12C [DCA_Bile Acids] |  |  |  | −0.1175 | 0.4329 | 0.3154 |  |  |
| CNCC(=O)O [Sarcosine_Aminoacids Related] |  |  |  | −8.353 | 15.48 | 7.123 |  |  |
| CCC(N)C(=O)O (centres unmarked) [AABA_Aminoacids Related] |  |  |  | 6.05 | 34.66 | 40.71 |  |  |
| NC(CCCC(=O)O)C(=O)O (stereo not drawn) [alpha-AAA_Aminoacids Related] |  |  |  | 0.5321 | 1.201 | 1.734 |  |  |
| CC(O)C(=O)O (centres unmarked) [Lac_Carboxylic Acids] |  |  |  | −162.8 | 1715 | 1552 |  |  |
| N[C@@H](Cc1ccc(O)cc1)C(=O)O [Tyr_Aminoacids] |  |  |  | 17.03 | 83.3 | 100.3 | −0.2679 |  |
| CCCCCCCCCCCCC/C=C/[C@@H](O)[C@H](CO)NC(=O)CCCCCCCCCCCCC [Cer(d18:1/14:0)_Ceramides] |  |  |  | 0.02054 | 0.1654 | 0.186 |  |  |
| C[N+](C)(C)C[C@H](O)CC(=O)[O-] [CO_Acylcarnitines] | 0.159 | 46.51 | 46.67 |  |  |  |  |  |
| Cn1cncc1C[C@H](N)C(=O)O [3-Met-His_Aminoacids Related] |  |  |  | 4.94 | 12.4 | 17.34 |  |  |
| NCCCCC(=O)O [5-AVA_Aminoacids Related] |  |  |  | 0.05599 | 0.06457 | 0.1206 | −0.9013 | 0.5354 |
| C[C@]12CCC(=O)C=C1CC[C@@H]1[C@@H]2[C@@H](O)C[C@@]2(C)[C@H]1CC[C@]2(O)C(=O)CO [Cortisol_Hormones] |  |  |  | −0.09268 | 0.3855 | 0.2928 |  |  |
| O=C(O)[C@@H]1C[C@@H](O)CN1 [t4-OH-Pro_Aminoacids Related] |  |  |  | 5.369 | 19.52 | 24.88 |  |  |
| CCCCCCCCCCCCC/C=C/[C@@H](O)[C@H](CO)NC(=O)CCCCCCCCCCCCCCCCCCCCCCCCC [Cer(d18:1/26:0)_Ceramides] |  |  |  | 0.02156 | 0.08885 | 0.1104 |  |  |
| C[N+](C)(C)[O-] [TMAO_Amine Oxides] |  |  |  | −2.576 | 9.295 | 6.719 |  |  |
| N[C@@H](CS)C(=O)O [Cys_Aminoacids] |  |  |  | −30.77 | 133.6 | 102.9 | 0.3767 |  |
| N=C(N)NCCC[C@H](N)C(=O)O [Arg_Aminoacids] |  |  |  | 17.97 | 114.7 | 132.7 |  |  |
| O=c1[nH]cnc2nc[nH]c12 [Hypoxanthine_Nucleobases Related] |  |  |  | 1.351 | 3.012 | 1.661 |  |  |
| O=c1[nH]c(=O)c2nc[nH]c2[nH]1 [Xanthine_Nucleobases Related] |  |  |  | −0.2421 | 1.745 | 1.503 |  |  |
| NC(=O)NCCC[C@H](N)C(=O)O [Cit_Aminoacids Related] | 2.03 | 44.18 | 46.21 |  |  |  |  |  |
